Reference: ChEMBL document CHEMBL4316593 (Eur J Med Chem, 2019)
Further values from the same series stand in other lists.

Tests used:
Type in all cases: cell-based
Settings in all cases: U-87MG ATCC
[1] = Inhibition of RTK/PI3K/AKT/mTOR signaling in human U87 cells assessed as down regulation of QSOX1 gene expression at cytotoxic IC50 measured after 48 hrs relative to control
[2] = Inhibition of RTK/PI3K/AKT/mTOR signaling in human U87 cells assessed as down regulation of GPN3 gene expression at cytotoxic IC50 measured after 48 hrs relative to control
[3] = Inhibition of RTK/PI3K/AKT/mTOR signaling in human U87 cells assessed as down regulation of CD163L1 gene expression at cytotoxic IC50 measured after 48 hrs relative to control
[4] = Inhibition of RTK/PI3K/AKT/mTOR signaling in human U87 cells assessed as up regulation of PCDH7 gene expression at cytotoxic IC50 measured after 48 hrs relative to control
[5] = Inhibition of RTK/PI3K/AKT/mTOR signaling in human U87 cells assessed as up regulation of nuclear factor, erythroid 2 like 1 gene expression at cytotoxic IC50 measured after 48 hrs relative to control
[6] = Inhibition of RTK/PI3K/AKT/mTOR signaling in human U87 cells assessed as down regulation of FAM91A1 gene expression at cytotoxic IC50 measured after 48 hrs relative to control
[7] = Inhibition of RTK/PI3K/AKT/mTOR signaling in human U87 cells assessed as up regulation of eukaryotic translation elongation factor 1 alpha 2 gene expression at cytotoxic IC50 measured after 48 hrs relative to control
[8] = Inhibition of RTK/PI3K/AKT/mTOR signaling in human U87 cells assessed as down regulation of TATDN3 gene expression at cytotoxic IC50 measured after 48 hrs relative to control
[9] = Inhibition of RTK/PI3K/AKT/mTOR signaling in human U87 cells assessed as down regulation of ILF2 gene expression at cytotoxic IC50 measured after 48 hrs relative to control
[10] = Inhibition of RTK/PI3K/AKT/mTOR signaling in human U87 cells assessed as down regulation of ARMCX5 gene expression at cytotoxic IC50 measured after 48 hrs relative to control
[11] = Inhibition of RTK/PI3K/AKT/mTOR signaling in human U87 cells assessed as up regulation of lipin 3 gene expression at cytotoxic IC50 measured after 48 hrs relative to control
[12] = Inhibition of RTK/PI3K/AKT/mTOR signaling in human U87 cells assessed as up regulation of ribosomal protein L22 gene expression at cytotoxic IC50 measured after 48 hrs relative to control
[13] = Inhibition of RTK/PI3K/AKT/mTOR signaling in human U87 cells assessed as up regulation of SEC63 homolog, protein translocation regulator gene expression at cytotoxic IC50 measured after 48 hrs relative to control
[14] = Inhibition of RTK/PI3K/AKT/mTOR signaling in human U87 cells assessed as down regulation of TFCP2L1 gene expression at cytotoxic IC50 measured after 48 hrs relative to control
[15] = Inhibition of RTK/PI3K/AKT/mTOR signaling in human U87 cells assessed as up regulation of EH domain binding protein 1 like 1 gene expression at cytotoxic IC50 measured after 48 hrs relative to control
[16] = Inhibition of RTK/PI3K/AKT/mTOR signaling in human U87 cells assessed as up regulation of multimerin 2 gene expression at cytotoxic IC50 measured after 48 hrs relative to control
[17] = Inhibition of RTK/PI3K/AKT/mTOR signaling in human U87 cells assessed as up regulation of ATP synthase, H+ transporting, mitochondrial Fo complex subunit C2 (subunit 9) gene expression at cytotoxic IC50 measured after 48 hrs relative to control
[18] = Inhibition of RTK/PI3K/AKT/mTOR signaling in human U87 cells assessed as up regulation of synaptotagmin like 3 gene expression at cytotoxic IC50 measured after 48 hrs relative to control
[19] = Inhibition of RTK/PI3K/AKT/mTOR signaling in human U87 cells assessed as up regulation of FK506 binding protein 10 gene expression at cytotoxic IC50 measured after 48 hrs relative to control
[20] = Inhibition of RTK/PI3K/AKT/mTOR signaling in human U87 cells assessed as down regulation of C7orf50 gene expression at cytotoxic IC50 measured after 48 hrs relative to control
[21] = Inhibition of RTK/PI3K/AKT/mTOR signaling in human U87 cells assessed as down regulation of STX3 gene expression at cytotoxic IC50 measured after 48 hrs relative to control
[22] = Inhibition of RTK/PI3K/AKT/mTOR signaling in human U87 cells assessed as down regulation of ZNF304 gene expression at cytotoxic IC50 measured after 48 hrs relative to control
[23] = Inhibition of RTK/PI3K/AKT/mTOR signaling in human U87 cells assessed as up regulation of semaphorin 4G gene expression at cytotoxic IC50 measured after 48 hrs relative to control
[24] = Inhibition of RTK/PI3K/AKT/mTOR signaling in human U87 cells assessed as down regulation of ACTR3 gene expression at cytotoxic IC50 measured after 48 hrs relative to control
[25] = Inhibition of RTK/PI3K/AKT/mTOR signaling in human U87 cells assessed as up regulation of twinkle mtDNA helicase gene expression at cytotoxic IC50 measured after 48 hrs relative to control
[26] = Inhibition of RTK/PI3K/AKT/mTOR signaling in human U87 cells assessed as down regulation of TRA2B gene expression at cytotoxic IC50 measured after 48 hrs relative to control
[27] = Inhibition of RTK/PI3K/AKT/mTOR signaling in human U87 cells assessed as down regulation of SYNJ1 gene expression at cytotoxic IC50 measured after 48 hrs relative to control
[28] = Inhibition of RTK/PI3K/AKT/mTOR signaling in human U87 cells assessed as up regulation of selenoprotein F gene expression at cytotoxic IC50 measured after 48 hrs relative to control
[29] = Inhibition of RTK/PI3K/AKT/mTOR signaling in human U87 cells assessed as down regulation of HAUS6 gene expression at cytotoxic IC50 measured after 48 hrs relative to control
[30] = Inhibition of RTK/PI3K/AKT/mTOR signaling in human U87 cells assessed as down regulation of FAM83H gene expression at cytotoxic IC50 measured after 48 hrs relative to control
[31] = Inhibition of RTK/PI3K/AKT/mTOR signaling in human U87 cells assessed as down regulation of SF3A1 gene expression at cytotoxic IC50 measured after 48 hrs relative to control
[32] = Inhibition of RTK/PI3K/AKT/mTOR signaling in human U87 cells assessed as up regulation of RPL12 gene expression at cytotoxic IC50 measured after 48 hrs relative to control

CC(=O)C(=NNc1ccccc1C#N)C(C)=O
log2FC [1]: -0.445
log2FC [2]: -0.736
log2FC [3]: -1.7
log2FC [4]: 2.04
log2FC [5]: 0.647
log2FC [6]: -0.702
log2FC [7]: 0.829
log2FC [8]: -1.15
log2FC [9]: -0.467
log2FC [10]: -1.31
log2FC [11]: 0.889
log2FC [12]: 0.939
log2FC [13]: 0.999
log2FC [14]: -1.27
log2FC [15]: 0.959
log2FC [16]: 1.21
log2FC [17]: 0.664
log2FC [18]: 1.54
log2FC [19]: 1.18
log2FC [20]: -0.883
log2FC [21]: -0.915
log2FC [22]: -1.17
log2FC [23]: 1.19
log2FC [24]: -0.461
log2FC [25]: 1.23
log2FC [26]: -0.781
log2FC [27]: -2.27
log2FC [28]: 0.875
log2FC [29]: -0.631
log2FC [30]: -0.451
log2FC [31]: -0.431
log2FC [32]: 0.337
